# Values from PubChem BioAssay AID1224830 (NIAID, 2016).
# Purpose: 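Host factors that control LPS-induced TNF expression in human macrophages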 (primary screen)
# System: human THP-1 monocytic leukaemia cells, TNF dual-luciferase reporter clone, PMA-differentiated to macrophage-like cells
# Reagents: siRNA pool against human genes, 50 nM
# Duration: LPS for 4 h, given about 3 days after siRNA transfection
# Treatment: bacterial LPS (TLR4 ligand), 10 ng/ml
# Measured: 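TNF firefly reporter luminescence divided by renilla, normalised to the plate median, then turned into a robust z-score for each replicate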
# Scale: TNF reporter robust z-score: higher = stronger TNF reporter response to LPS
# Rule for the call: 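Each well counts as active if its z-score is over 2.8 or under -1.5; controls are left without a call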
# The whole screen tested about 18,000 reagents; below is an unselected part. About 2,900 of them (16%) were called active. 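Calls are made per well; low scores hint the gene aids the LPS response, high scores that it dampens it.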 Repeated entries: four replicate wells of each siRNA pool. No sequences are given here.
Gene,TNF reporter robust z-score,Outcome
IL21R (interleukin 21 receptor),-1.07,inactive
IL21R (interleukin 21 receptor),-1.08,inactive
IL21R (interleukin 21 receptor),-0.97,inactive
IL21R (interleukin 21 receptor),-0.39,inactive
ZNF454 (zinc finger protein 454),0.87,inactive
ZNF454 (zinc finger protein 454),1.86,inactive
ZNF454 (zinc finger protein 454),0.31,inactive
ZNF454 (zinc finger protein 454),0.42,inactive
GRHL1 (grainyhead like transcription factor 1),0.66,inactive
GRHL1 (grainyhead like transcription factor 1),0.11,inactive
GRHL1 (grainyhead like transcription factor 1),-0.26,inactive
GRHL1 (grainyhead like transcription factor 1),0.02,inactive
EXOC2 (exocyst complex component 2),0.73,inactive
EXOC2 (exocyst complex component 2),-0.83,inactive
EXOC2 (exocyst complex component 2),1.07,inactive
EXOC2 (exocyst complex component 2),0.35,inactive
DAD1 (defender against cell death 1),-1.22,inactive
DAD1 (defender against cell death 1),-1.6,active
DAD1 (defender against cell death 1),-1.67,active
DAD1 (defender against cell death 1),-1.42,inactive
SCAP (SREBF chaperone),-0.03,inactive
SCAP (SREBF chaperone),0.43,inactive
SCAP (SREBF chaperone),-0.2,inactive
SCAP (SREBF chaperone),-0.55,inactive
KCNA2 (potassium voltage-gated channel subfamily A member 2),-1.83,active
KCNA2 (potassium voltage-gated channel subfamily A member 2),0,inactive
KCNA2 (potassium voltage-gated channel subfamily A member 2),-1.76,active
KCNA2 (potassium voltage-gated channel subfamily A member 2),-0.86,inactive
TOM1 (target of myb1 membrane trafficking protein),2.38,inactive
TOM1 (target of myb1 membrane trafficking protein),0.47,inactive
TOM1 (target of myb1 membrane trafficking protein),1.9,inactive
TOM1 (target of myb1 membrane trafficking protein),1.05,inactive
TMEM71 (transmembrane protein 71),2.26,inactive
TMEM71 (transmembrane protein 71),3.02,active
TMEM71 (transmembrane protein 71),2.3,inactive
TMEM71 (transmembrane protein 71),2.14,inactive
SLC4A4,-0.96,inactive
SLC4A4,-0.72,inactive
SLC4A4,-1.05,inactive
SLC4A4,-0.47,inactive
AIG1 (androgen induced 1),0.94,inactive
AIG1 (androgen induced 1),2.69,inactive
AIG1 (androgen induced 1),0.74,inactive
AIG1 (androgen induced 1),0.54,inactive
KLF5 (KLF transcription factor 5),-0.55,inactive
KLF5 (KLF transcription factor 5),3,active
KLF5 (KLF transcription factor 5),3.14,active
KLF5 (KLF transcription factor 5),0.5,inactive
DTX1 (deltex E3 ubiquitin ligase 1),-1.3,inactive
DTX1 (deltex E3 ubiquitin ligase 1),-2.46,active
DTX1 (deltex E3 ubiquitin ligase 1),-0.9,inactive
DTX1 (deltex E3 ubiquitin ligase 1),-1.51,active
TMEM123 (transmembrane protein 123),-1.72,active
TMEM123 (transmembrane protein 123),-0.7,inactive
TMEM123 (transmembrane protein 123),-0.38,inactive
TMEM123 (transmembrane protein 123),-0.44,inactive
COL8A2 (collagen type VIII alpha 2 chain),-1.22,inactive
COL8A2 (collagen type VIII alpha 2 chain),-0.94,inactive
COL8A2 (collagen type VIII alpha 2 chain),-1.21,inactive
COL8A2 (collagen type VIII alpha 2 chain),-1.14,inactive
FOCAD (focadhesin),-0.31,inactive
FOCAD (focadhesin),0.26,inactive
FOCAD (focadhesin),-0.37,inactive
FOCAD (focadhesin),-0.32,inactive
MOG (myelin oligodendrocyte glycoprotein),-1.06,inactive
MOG (myelin oligodendrocyte glycoprotein),-0.99,inactive
MOG (myelin oligodendrocyte glycoprotein),-1.18,inactive
MOG (myelin oligodendrocyte glycoprotein),-0.88,inactive
KATNB1 (katanin regulatory subunit B1),-1.15,inactive
KATNB1 (katanin regulatory subunit B1),0.38,inactive
KATNB1 (katanin regulatory subunit B1),0.94,inactive
KATNB1 (katanin regulatory subunit B1),-0.36,inactive
SPTLC1 (serine palmitoyltransferase long chain base subunit 1),-0.83,inactive
SPTLC1 (serine palmitoyltransferase long chain base subunit 1),0.57,inactive
SPTLC1 (serine palmitoyltransferase long chain base subunit 1),-0.19,inactive
SPTLC1 (serine palmitoyltransferase long chain base subunit 1),0.05,inactive
CNTNAP2 (contactin associated protein 2),-0.76,inactive
CNTNAP2 (contactin associated protein 2),-1.64,active
CNTNAP2 (contactin associated protein 2),-1.03,inactive
CNTNAP2 (contactin associated protein 2),-0.92,inactive
EPS15 (epidermal growth factor receptor pathway substrate 15),-0.11,inactive
EPS15 (epidermal growth factor receptor pathway substrate 15),-0.41,inactive
EPS15 (epidermal growth factor receptor pathway substrate 15),0.23,inactive
EPS15 (epidermal growth factor receptor pathway substrate 15),0.14,inactive
SGCA (sarcoglycan alpha),-1.1,inactive
SGCA (sarcoglycan alpha),-0.33,inactive
SGCA (sarcoglycan alpha),-0.44,inactive
SGCA (sarcoglycan alpha),-0.05,inactive
CELF1 (CUGBP Elav-like family member 1),0.68,inactive
CELF1 (CUGBP Elav-like family member 1),2.06,inactive
CELF1 (CUGBP Elav-like family member 1),0.52,inactive
CELF1 (CUGBP Elav-like family member 1),1.22,inactive
CENATAC (centrosomal AT-AC splicing factor),0.75,inactive
CENATAC (centrosomal AT-AC splicing factor),3.26,active
CENATAC (centrosomal AT-AC splicing factor),2.11,inactive
CENATAC (centrosomal AT-AC splicing factor),-0.29,inactive
CA5B (carbonic anhydrase 5B),0.17,inactive
CA5B (carbonic anhydrase 5B),-0.06,inactive
CA5B (carbonic anhydrase 5B),-0.2,inactive
CXCL10 (C-X-C motif chemokine ligand 10),-0.31,inactive
CXCL10 (C-X-C motif chemokine ligand 10),-0.2,inactive
CXCL10 (C-X-C motif chemokine ligand 10),-0.89,inactive
CXCL10 (C-X-C motif chemokine ligand 10),0.07,inactive
EVI5 (ecotropic viral integration site 5),-0.89,inactive
EVI5 (ecotropic viral integration site 5),-0.9,inactive
EVI5 (ecotropic viral integration site 5),-0.72,inactive
EVI5 (ecotropic viral integration site 5),0.23,inactive
LHFPL6 (LHFPL tetraspan subfamily member 6),-1.09,inactive
LHFPL6 (LHFPL tetraspan subfamily member 6),-1.21,inactive
LHFPL6 (LHFPL tetraspan subfamily member 6),-1.08,inactive
LHFPL6 (LHFPL tetraspan subfamily member 6),-0.85,inactive

Sorted by “TNF reporter robust z-score” (low to high): 9 of the entries above.
Gene,TNF reporter robust z-score,Outcome
COL8A2 (collagen type VIII alpha 2 chain),-1.22,inactive
COL8A2 (collagen type VIII alpha 2 chain),-1.21,inactive
COL8A2 (collagen type VIII alpha 2 chain),-1.14,inactive
COL8A2 (collagen type VIII alpha 2 chain),-0.94,inactive
TMEM123 (transmembrane protein 123),-0.44,inactive
FOCAD (focadhesin),-0.37,inactive
FOCAD (focadhesin),-0.32,inactive
FOCAD (focadhesin),-0.31,inactive
FOCAD (focadhesin),0.26,inactive
